# Earlier results, collected in patent EP0816362A1, “THIAZOLE DERIVATIVES” (TAISHO PHARMACEUTICAL CO. LTD, priority 1995, dated 1996).
# At least one structure is not confirmed: it was looked up by name or label, or the drawing left a doubt.
# Conditions: clinical experiments; Arch. Gen. Psych., 45, 789-796 (1988); cited from earlier work
compound,measurement,value
CN1CCN(C2=Nc3cc(Cl)ccc3Nc3ccccc32)CC1 [clozapine],effect against drug-resistant schizophrenia and negative symptoms,effective
